Here are results for one molecule from PMC7460559 (International Journal of Molecular Sciences, 2020).

The subject of one assay is E. coli CCARM 1229. The assay is described as follows: MIC assay, drug-resistant strain. It counts as cell-based. The note with it: Escherichia coli, CCARM1229, peptides assayed in DMEM supplemented with 10% FBS. From the text: (§1) Escherichia coli (ATCC 25922) and S. aureus (ATCC 25923) were obtained from American Type Culture Collection (Manassas, VA, USA). Escherichia coli CCARM 1229, E. coli CCARM 1238, S. aureus CCARM 3089, S. aureus 3114, Salmonella typhimurium CCARM 8009, and S. typhimurium CCARM 8013 were obtained from the culture collection of antibiotic-resistant microbes at Seoul Women’s University, Republic of Korea. Pseudomonas aeruginosa 3547 and P. aeruginosa 4007 were resistant strains isolated from hospital patients with otitis media at Chonnam National University, Republic of Korea. The rifampin-resistant S. aureus PBEL 1 and vancomycin-resistant S. aureus PBEL 2 strains used in this study were generated from wild-type S. aureus (ATCC 25923).
(§2) Bacterial cells were incubated within culture media at 37 °C. The peptide antimicrobial activity was determined by the minimal inhibition concentration (MIC) assay. […] The samples were incubated for 18–24 h at 37 °C. After incubation, the minimum inhibitory concentrations (MICs) of the peptides were determined by measuring the absorbance at an optical density of 600 nm (OD600).

The subject of a further assay is E. coli CCARM 1238. The assay is described as follows: MIC assay, drug-resistant strain. In kind it is cell-based. The note with it: Escherichia coli, CCARM1238, peptides assayed in DMEM supplemented with 10% FBS.
Description: as §1, §2

SMILES strings stand for the structures.

Broadly, the MIC is the least concentration at which growth counts as inhibited. Low readings indicate inhibition by little substance, high ones a need for much substance.

In the case of `CC1(C)S[C@@H]2[C@H](NC(=O)[C@H](N)c3ccccc3)C(=O)N2[C@H]1C(=O)O` [Amp, ampicillin], the MIC in the assay on E. coli CCARM 1229 and in the assay on E. coli CCARM 1238 was > 512 µM throughout.
